Measurements: PubChem BioAssay AID2685 (National Center for Advancing Translational Sciences (NCATS), 2010)
Among all 320,000 compounds or so, about 2,100 (0.66%) were called active. The shares of active, inactive and inconclusive entries below differ from those in the screen. Calls come from the whole dose curve; as a rule, active = well fitted inhibition curve with a large enough effect in the signal ratio, with a control signal flat (not every such curve was filed as active); inconclusive = small, poorly fitted or top-dose-only effect, or effect the other way, or a change in a side signal; inactive = flat fitted curve, though single readings scatter; the % refers to the signal ratio. Potencies beside an inconclusive call are fits to weak or partial responses and may not hold up.

Assay: qHTS Assay for Lipid Storage Modulators in Drosophila S3 Cells
Settings: BODIPY lipid droplet fluorescence, 18-24 h, cells fed with added oleic acid; lipid storage change, negative = inhibition: at 46.1 µM (top of the series) unless noted
Method in brief: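 Laser-scanning cytometry quantifies lipid droplet accumulation (500–530 nm total intensity; droplet/cell object ratio) in oleic acid-fed (400 uM added) Drosophila S3 cells treated with a concentration series. 20 uM Triacsin C defined 100% inhibition.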
% is set by controls: 0 for no effect and ±100 for the full control effect; potency is the fitted concentration of half-maximal effect.

SMILES	Potency	lipid storage change, negative = inhibition
CCC(C)NC(=O)c1ccc2c(Cl)c3c(nc2c1)CCC3 (centres undefined)	inconclusive: 0.082 µM [falling, full curve, poor fit]	–
COc1ccc(OC)c(NC(=O)C2CCCN(S(=O)(=O)c3cccc4cccnc34)C2)c1 (centres undefined)	–	inconclusive: 6.86% [at 9.22 µM]
c1cncc(Nc2nc(-c3cccnc3)cs2)c1	–	inconclusive: 10.4%
CC1(C)OC(=O)C=C(CC2NS(=O)(=O)OC3CCCCC23)O1 (centres undefined)	–	inconclusive: 16.3%
Oc1ccc(COCc2ccccc2)c2cccnc12	–	inconclusive: -54.4%
O=C(c1ccc(CSc2ccccc2)cc1)N1CCN(c2ccccc2)CC1	–	inconclusive: -3.62%
CC(C)CC(=O)N1CCN(C(=O)c2cccc(F)c2)CC1	inconclusive: 29.1 µM [activator, single point]	–
CCCn1c(SCN2C(=O)c3ccccc3C2=O)nc2cc(Cl)ccc2c1=O	–	inconclusive: 5.52%
COc1ccc(-c2ccc(=O)n(CC(=O)NCC3COCCO3)n2)cc1 (centres undefined)	–	inconclusive
Cc1ccc(SCC(=O)Nc2ccc3c(c2)OCCO3)cc1	–	inconclusive: -2.68%
FC(F)(F)c1ccc(Cl)c(NC2=NCCCCC2)c1	–	inconclusive: -20.7%
CCn1c(SCC(=O)Nc2sc3c(c2C#N)CCC(C(C)(C)C)C3)nnc1-c1ccco1 (centres undefined)	–	inactive
CCOc1cc(-c2sc(Nc3cc(C)ccc3OC)n[n+]2-c2ccccc2)ccc1OC	–	inconclusive: -24.8%
Cc1cc(S(=O)(=O)N2CCCC2)ccc1OCC(=O)N1CCC(C(N)=O)CC1	inconclusive: 6.51 µM [falling, single point]	–
COc1ccccc1OCC(=O)Nc1c2c(nn1-c1ccc(C)cc1)CS(=O)(=O)C2	–	inconclusive
CN(CCCNC(=O)C1CCC(CNS(=O)(=O)c2ccccc2)CC1)Cc1ccccc1 (centres undefined)	–	inconclusive: 88.4%
CCC1CCCCN1C(=O)COC(=O)c1ccc(Br)o1 (centres undefined)	–	inconclusive: 4.69%
O=C(CSc1ccc(F)cc1)Nc1ccc(N2CCOCC2)c(Cl)c1	inconclusive: 5.17 µM [activator, full curve, poor fit]	–
COc1cccc(C(=O)Nc2cccc3cccnc23)c1OC	–	inconclusive: -53.7%
CCCCN(C(=O)/C=C/c1ccco1)c1c(N)n(CC(C)C)c(=O)[nH]c1=O	–	inconclusive: -8.06%
Cc1ccc(OCC(=O)N2CCCCC2)c(Br)c1	inconclusive: 0.0052 µM [falling, full curve, poor fit]	–
O=S(=O)(NC1CC1)c1ccc(S(=O)(=O)N2CCCC(c3nc(-c4cccnc4)no3)C2)cc1 (centres undefined)	inconclusive: 1.3 µM [activator, partial curve]	–
Cn1c(=O)n(C)c2cc(NS(C)(=O)=O)ccc21	inconclusive: 0.651 µM [falling, partial curve, poor fit]	–
Cc1ccc(NC(=O)c2ccc(Cl)c(S(=O)(=O)N3CCCCCC3)c2)nc1	–	inconclusive: 11.8%
Cc1ccccc1C(=O)Nn1cnnc1	inconclusive: 0.731 µM [activator, partial curve]	–
CN1CCN(C(=S)NC(=O)/C=C/c2ccccc2)CC1	–	inconclusive: 17.3%
CCN(CC)C(=O)n1cnc(-c2ccccc2)c1-c1ccccc1	inconclusive: 0.651 µM [activator, partial curve, poor fit]	–

Retrieved by compound from the list above:
SMILES	Potency	lipid storage change, negative = inhibition
CCN(CC)C(=O)n1cnc(-c2ccccc2)c1-c1ccccc1	inconclusive: 0.651 µM [activator, partial curve, poor fit]	–
CN(CCCNC(=O)C1CCC(CNS(=O)(=O)c2ccccc2)CC1)Cc1ccccc1 (centres undefined)	–	inconclusive: 88.4%

(further entries)

SMILES	Potency	lipid storage change, negative = inhibition
Cc1ccc(NC(=O)Nc2ccc3c(c2)OCO3)nc1	–	inconclusive: 27.8% [at 9.22 µM]
Cc1ccc(C(=O)CNc2cc(C)ccc2C)cc1	–	inconclusive: 11.4%
CC(=O)Nc1cc2cc(NS(=O)(=O)c3ccc(Cl)cc3)ccc2oc1=O	–	inactive
O=C(c1cccc([N+](=O)[O-])c1)N1CCN(c2cccc(Cl)c2)CC1	–	inactive
O=C(Nc1cccc(S(=O)(=O)N2CCCCC2)c1)c1c2c(nc3ccccc13)CCN(Cc1ccccc1)C2	inconclusive: 25.9 µM [falling, single point]	–
CCNS(=O)(=O)c1c(C)cc(C)c(N(C)S(=O)(=O)c2ccccc2)c1C	–	inconclusive: 8.89%
O=C(O)c1c(-c2ccccc2)c2oc3ccccc3c2[nH]c1=O	–	inconclusive: 2.37%
COc1ccc(C[C@H](C(=O)O)N2C(=O)c3ccc(C(=O)O)cc3C2=O)cc1	–	inconclusive: 7.49%
COc1ccc(N2CCN(C(=O)CCC(=O)c3cc(C)sc3C)CC2)cc1	–	inconclusive: 16.2%
CC(=O)Nc1ccc(S(=O)(=O)NCC2CCC(C(=O)NCCc3ccccc3)CC2)cc1 (centres undefined)	–	inconclusive: 1.58%
O=C(CSc1nnnn1-c1ccccc1)Nc1nsc(-c2ccc(Cl)cc2)n1	–	inconclusive: 32.9%
Oc1c(Br)cc(Br)cc1CNc1nccs1	–	inconclusive: -60.4%
CCCCCCNC(=O)Cc1ccc(Br)cc1	–	inconclusive: 40%
O=C(OCC(=O)C12CC3CC(CC(C3)C1)C2)c1cnccn1	inconclusive: 5.17 µM [falling, partial curve, poor fit]	–
O=P(c1cccs1)(c1cccs1)c1cccs1	inconclusive: 2.31 µM [falling, full curve, poor fit]	–
COc1ccccc1Cn1c(CO)nc2ccccc21	–	inconclusive: 18.6%
O=C(CNC(=O)c1cccnc1)N/N=C/c1cc(Br)c(O)c(Br)c1	–	inconclusive: 10.3%
COc1ccc(C(C(=O)NC2CCCCC2)N(Cc2cccs2)C(=O)Cc2c[nH]c3ccccc23)cc1 (centres undefined)	–	inconclusive: -23.6%
O=C(CSc1nccc(=O)[nH]1)N1CCCc2ccccc21	–	inconclusive: 20.5%
Cc1cc(C(=O)CN2C(=O)NC(C)(c3cccc(Br)c3)C2=O)c(C)n1Cc1ccco1 (centres undefined)	–	inconclusive: -2.23%
S=C(NCCc1ccccc1)NN=C1CCCCCC1	–	inactive
CCOC(=O)c1c2ccccc2[n+]([O-])n1CCO	active: 18.4 µM	–
CCOC(=O)C1CCCN(CC(O)COCc2ccccc2OC)C1 (centres undefined)	–	inconclusive: 35.1%
Cc1c(N=N/C(C(=O)Nc2ccccc2)=C(/O)c2ccccc2)c(=O)n(-c2ccccc2)n1C	–	inconclusive: 2.16%
c1ccc(-c2nc(-c3ccco3)n3ccccc23)cc1	inconclusive: 0.411 µM [falling, full curve, poor fit]	–
CCOC(=O)CNC(=O)c1cc(C)oc1C	–	inconclusive: -3.62%
CCCC(=O)c1cc2cc(Cl)ccc2oc1=O	–	inconclusive: 0.0926%

SMILES	Potency	lipid storage change, negative = inhibition
Cc1ccc(NC(=O)[C@H](NC(=O)[C@@H]2Cc3ccccc3CN2)c2ccccc2)cc1C	inconclusive: 29.1 µM [activator, single point]	–
CN(C)c1ccc(C(C(=O)NC2CCCCC2)N(Cc2ccco2)C(=O)c2snc(C(N)=O)c2N)cc1 (centres undefined)	inconclusive: 1.16 µM [falling, single point]	–
c1ccc2nc(-c3nc4ccccc4[nH]3)ccc2c1	inconclusive: 1.3 µM [rising, full curve]	–
COc1ccc(OC)c(/C=N/Nc2cc(C)nc(N3CCOCC3)n2)c1	–	inconclusive: 11.5%
CCC(C)(C)n1nnnc1C(c1ccc(N(C)C)cc1)N1CCN(C2CCCCC2)CC1 (centres undefined)	–	inactive
Cc1cccc(N2CCN(CC(=O)N(C3CCCC3)C3CCS(=O)(=O)C3)CC2)c1C (centres undefined)	inconclusive: 0.291 µM [falling, full curve, poor fit]	–
CC(=C1C(=O)c2ccccc2C1=O)N1CCN(C/C=C/c2ccccc2)CC1	–	inconclusive: -29.2%
Cc1ccc(CNC(=O)CN2CCN(c3ccc(F)cc3)CC2)cc1	–	inconclusive: 26.1%
COc1cc(C(=O)O)cc(OC)c1OCc1cc(C(=O)O)oc1C	–	inactive
CN(C)c1ccc(-c2noc(C3CCN(C(=O)Nc4ccc(Cl)cc4)CC3)n2)cc1	–	inconclusive: 10.4%
CC(C)CNC(=O)COC(=O)CCC(=O)c1ccc(Cl)cc1	–	inconclusive: 45.6%
COc1ccc(NS(=O)(=O)c2cccc3cccnc23)cc1Cl	–	inconclusive: -46.6%
COCC(=O)NCc1nc2ccccc2n1Cc1ccccc1F	inconclusive: 14.6 µM [activator, single point]	–
COc1ccc(NS(=O)(=O)c2c(F)cccc2F)cc1S(=O)(=O)N1CCOCC1	–	inconclusive: 0.941%
COc1cccc(NC(=O)N(CCN(C)C)C(C)c2cccnc2)c1 (centres undefined)	–	inconclusive: -4.09%
CCn1c(=O)cc(OCC(=O)Nc2ccc(OC)c(OC)c2)c2ccccc21	inconclusive: 6.51 µM [falling, single point]	–
Fc1ccc(Cn2c(SCc3ccc(F)c(C(F)(F)F)c3)nnc2C(F)(F)F)cc1	–	inconclusive: 7.32%
Cc1cc(N/N=C/c2ccc(N(C)C)cc2)nc(NCc2ccccc2)n1	–	inconclusive: 5.32%
CC(=O)c1c(C(C)=O)c(C)n(-c2nc(-c3ccc(C)c(C)c3)c(C)s2)c1C	inconclusive: 5.17 µM [rising, partial curve]	–
CCOC(=O)C(NC(=O)Nc1ccc(F)cc1F)(Oc1ccccc1)C(F)(F)F (centres undefined)	–	inconclusive: -81.2%
CN(C(=O)CSc1nnc(-c2ccncc2)n1Cc1ccccc1)C1CCS(=O)(=O)C1 (centres undefined)	–	inconclusive: -22.7%
O=C(NC1CCCC1)c1cc(-c2ccc(Cl)c(Cl)c2)on1	–	inconclusive: -15.4%
COc1ccc(-c2c(C)n([O-])c(C)c(C)[n+]2=O)cc1OC	–	inconclusive: -12.8%
Cc1[nH]c(=O)[nH]c(=O)c1S(=O)(=O)Nc1ccc(F)c([N+](=O)[O-])c1	–	inconclusive: 10.8%
COc1ccc(C(=O)c2cn[nH]c2-c2cc(Cl)ccc2O)cc1	inconclusive: 16.4 µM [activator, single point]	–

Record cards, as listed above. Order of values: Potency | lipid storage change, negative = inhibition
CN(C)c1ccc(-c2noc(C3CCN(C(=O)Nc4ccc(Cl)cc4)CC3)n2)cc1 is entered as – | inconclusive: 10.4%
CC(=C1C(=O)c2ccccc2C1=O)N1CCN(C/C=C/c2ccccc2)CC1 is entered as – | inconclusive: -29.2%
COc1cc(C(=O)O)cc(OC)c1OCc1cc(C(=O)O)oc1C is entered as – | inactive
Cc1ccc(CNC(=O)CN2CCN(c3ccc(F)cc3)CC2)cc1 is entered as – | inconclusive: 26.1%
